US6969702B2, “Compounds and methods for increasing neurogenesis” (priority 2002, dated 2005)
Read-outs that look alike come from different tables or passages of the source. At least one structure is not confirmed: it was looked up by name or label, or the drawing left a doubt. Marks after values point to notes of the source that are not given here. Bridge positions count the residues as written; N and C are the ends. Square brackets hold non-standard residues; d marks the D form. Peptide text beside a SMILES is read from it. d(pGlu) = O=C1CC[C@H](C(=O)O)N1; pGlu = O=C1CC[C@@H](C(=O)O)N1

Experiments:
[1] = system: mouse adult neural stem cells; test: ATP-assay: proliferation (ATP levels) of neurosphere-derived cells; details: vs vehicle
[2] = system: cAMP activation in mouse adult neural stem cells; test: cAMP detection (HitHunter EFC Cyclic AMP Chemiluminescence Assay); details: Table 2, vs vehicle
[3] = system: Adult neural stem cells; test: Flow cytometry for early neuronal marker Doublecortin; details: Table 6; 100 nM; vs EGF/FGF
[4] = system: NFAT-Luciferace reporter (Ca^2+); details: Table 4, vs vehicle

Compound: CSCC[C@H](NC(=O)[C@H](CCCN=C(N)N)NC(=O)[C@H](Cc1ccc(O)cc1)NC(=O)[C@@H]1CCCN1C(=O)CNC(=O)[C@H](CCC(=O)O)NC(=O)[C@H](CC(=O)O)NC(=O)[C@H](CCCCN)NC(=O)[C@H](CCCCN)NC(=O)[C@H](CCC(=O)O)NC(=O)[C@H](C)N)C(=O)N[C@@H](CCC(=O)O)C(=O)N[C@@H](Cc1c[nH]cn1)C(=O)N[C@@H](Cc1ccccc1)C(=O)N[C@@H](CCCN=C(N)N)C(=O)N[C@@H](Cc1c[nH]c2ccccc12)C(=O)NCC(=O)N[C@@H](CO)C(=O)N1CCC[C@H]1C(=O)N1CCC[C@H]1C(=O)N[C@@H](CCCCN)C(=O)N[C@@H](CC(=O)O)C(=O)O [β-MSH, β-Melanocyte Stimulating Hormone]
- Fold Induction ATP ([1]; Table 2, 100 nM, 4 days): 1.3* fold
- Fold Induction cAMP ([2]; 10 nM): 1.3** (10 nM) fold
- Fold Induction (Doublecortin-positive cells) [3]: 1.6 fold

Compound: C[C@H](NC(=O)[C@@H](Cc1c[nH]c2ccccc12)NC(=O)[C@@H](N)Cc1c[nH]cn1)C(=O)N[C@@H](Cc1c[nH]c2ccccc12)C(=O)N[C@H](Cc1ccccc1)C(=O)N[C@@H](CCCCN)C(N)=O [(D-Trp7.Ala8.D-Phe10)-α-Melanocyte stimulating hormone F: 6-11/GHRP] (H-H[dW]AW[dF]K-NH2; N-terminus and C-terminus assumed)
- Fold Induction (Doublecortin-positive cells) [3]: 2.1 fold

Compound: CC[C@H](C)[C@H](NC(=O)[C@@H](NC(=O)[C@H](CC(=O)O)NC(=O)[C@H](CCC(N)=O)NC(=O)[C@H](Cc1cnc[nH]1)NC(=O)[C@@H]1CSSC[C@H](N)C(=O)N[C@@H]([C@@H](C)O)C(=O)N[C@H]2CSSC[C@H](NC(=O)[C@H](CCC(=O)O)NC(=O)[C@H](CCC(=O)O)NC(=O)[C@H](CC(=O)O)NC(=O)[C@H]([C@@H](C)O)NC(=O)[C@H](CCSC)NC(=O)[C@H](CC(=O)O)NC(=O)[C@H](CC(N)=O)NC2=O)C(=O)N[C@@H](CC(C)C)C(=O)N[C@@H](CC(N)=O)C(=O)N[C@@H](Cc2ccccc2)C(=O)N1)C(C)C)C(=O)N[C@@H](Cc1c[nH]c2ccccc12)C(=O)O [Sarafotoxin S6c]
- Fold Induction ATP ([1]; Table 2, 10 nM, 4 days): 2.6** fold
- Fold Induction ATP ([1]; Table 4, 1 nM): 2.7*** fold
- Fold Induction NFAT ([4]; 1 nM): 4.4* fold
- Fold Induction cAMP ([2]; 10 nM): 3.0** fold

Compound: CSCC[C@H](NC(=O)[C@H](CC(C)C)NC(=O)CNC(=O)[C@@H](NC(=O)[C@H](Cc1ccccc1)NC(=O)[C@H](CO)NC(=O)[C@H](CC(=O)O)NC(=O)[C@@H](NC(=O)[C@H](CCCCN)NC(=O)[C@@H](N)Cc1cnc[nH]1)[C@@H](C)O)C(C)C)C(N)=O [α-Neurokinin]
- Fold Induction ATP ([1]; Table 2, 100 nM, 4 days): 1.3* fold
- Fold Induction cAMP ([2]; 10 nM): 2.3* (10 nM) fold
- Fold Induction (Doublecortin-positive cells) [3]: 1.8 fold

Compound: CC[C@H](C)[C@H](NC(=O)[C@@H](NC(=O)[C@H](CC(=O)O)NC(=O)[C@H](CCC(N)=O)NC(=O)[C@H](Cc1cnc[nH]1)NC(=O)[C@@H]1CSSC[C@H](N)C(=O)N[C@@H](CO)C(=O)N[C@H]2CSSC[C@H](NC(=O)[C@H](CCC(=O)O)NC(=O)[C@H](CCCCN)NC(=O)[C@H](CC(=O)O)NC(=O)[C@H]([C@@H](C)O)NC(=O)[C@H](CCSC)NC(=O)[C@H](CC(=O)O)NC(=O)[C@H](CCCCN)NC2=O)C(=O)N[C@@H](CC(C)C)C(=O)N[C@@H](Cc2ccc(O)cc2)C(=O)N[C@@H](Cc2ccccc2)C(=O)N1)C(C)C)C(=O)N[C@@H](Cc1c[nH]c2ccccc12)C(=O)O [Sarafotoxin S6b] (H-CSCKDMTDKECLYFCHQDVIW-OH; disulfide 1-15, 3-11)
- Fold Induction ATP ([1]; Table 2, 100 nM, 4 days): 2.8** fold
- Fold Induction ATP ([1]; Table 4, 100 nM): 2.8** fold
- Fold Induction NFAT ([4]; 100 nM): 7.2* fold
- Fold Induction cAMP ([2]; 100 nM): 6.0* fold

Compound: CC[C@H](C)[C@H](NC(=O)[C@H](C)NC(=O)[C@H](CC(=O)O)NC(=O)[C@H](C)NC(=O)[C@@H](N)Cc1ccc(O)cc1)C(=O)N[C@@H](Cc1ccccc1)C(=O)N[C@H](C(=O)N[C@@H](CC(N)=O)C(=O)N[C@@H](CO)C(=O)N[C@@H](Cc1ccc(O)cc1)C(=O)N[C@@H](CCCNC(=N)N)C(=O)N[C@@H](CCCCN)C(=O)N[C@H](C(=O)N[C@@H](CC(C)C)C(=O)NCC(=O)N[C@@H](CCC(N)=O)C(=O)N[C@@H](CC(C)C)C(=O)N[C@@H](CO)C(=O)N[C@@H](C)C(=O)N[C@@H](CCCNC(=N)N)C(=O)N[C@@H](CCCCN)C(=O)N[C@@H](CC(C)C)C(=O)N[C@@H](CC(C)C)C(=O)N[C@@H](CCC(N)=O)C(=O)N[C@@H](CC(=O)O)C(=O)N[C@H](C(=O)N[C@@H](CCSC)C(=O)N[C@@H](CO)C(=O)N[C@@H](CCCNC(=N)N)C(=O)N[C@@H](CCC(N)=O)C(=O)N[C@@H](CCC(N)=O)C(=O)NCC(=O)N[C@@H](CCC(=O)O)C(=O)N[C@@H](CO)C(=O)N[C@@H](CC(N)=O)C(=O)N[C@@H](CCC(N)=O)C(=O)N[C@@H](CCC(=O)O)C(=O)N[C@@H](CCCNC(=N)N)C(=O)NCC(=O)N[C@@H](C)C(=O)N[C@@H](CCCNC(=N)N)C(=O)N[C@@H](C)C(=O)N[C@@H](CCCNC(=N)N)C(=O)N[C@@H](CC(C)C)C(N)=O)[C@@H](C)CC)C(C)C)[C@@H](C)O [Growth Hormone Releasing Factor]
- Fold Induction ATP ([1]; Table 4, 10 nM): 1.7* fold
- Fold Induction NFAT ([4]; 15 nM): 1.9** fold

Compound: CC[C@H](C)[C@H](NC(=O)[C@H](CO)NC(=O)[C@H](CC(N)=O)NC(=O)[C@H](CC(C)C)NC(=O)[C@H](Cc1ccc(O)cc1)NC(=O)[C@H](CCCCN)NC(=O)[C@H](CCCCN)NC(=O)[C@@H](NC(=O)[C@H](C)NC(=O)[C@H](CCSC)NC(=O)[C@H](CCC(N)=O)NC(=O)[C@H](CCCCN)NC(=O)[C@H](CCCN=C(N)N)NC(=O)[C@H](CC(C)C)NC(=O)[C@H](CCCN=C(N)N)NC(=O)[C@@H](NC(=O)[C@H](Cc1ccc(O)cc1)NC(=O)[C@H](CC(N)=O)NC(=O)[C@H](CC(=O)O)NC(=O)[C@@H](NC(=O)[C@H](Cc1ccccc1)NC(=O)[C@@H](NC(=O)[C@H](C)NC(=O)[C@H](CC(=O)O)NC(=O)[C@H](CO)NC(=O)[C@@H](N)Cc1c[nH]cn1)C(C)C)[C@@H](C)O)[C@@H](C)O)C(C)C)C(=O)N[C@@H](CC(C)C)C(=O)N[C@@H](CC(N)=O)C(N)=O [Vasoactive Intestinal Peptide (Human, Porcine, Rat)]
- Fold Induction ATP ([1]; Table 2, 1000 nM, 4 days): 1.7*** fold
- Fold Induction cAMP ([2]; 100 nM): 2.0* (100 nM) fold

Compound: CSCC[C@H](NC(=O)[C@H](CC(C)C)NC(=O)[C@@H]1CCCN1C(=O)[C@H](Cc1ccc(O)cc1)NC(=O)[C@H](Cc1ccccc1)NC(=O)[C@@H]1CSSC[C@H](NC(=O)[C@@H]2CCCN2C(=O)[C@@H](N)CCCNC(=N)N)C(=O)N2CCC[C@H]2C(=O)N[C@@H](CCC(N)=O)C(=O)N1)C(N)=O [[Cys3,6, Tyr8, Pro9]-Substance P] (H-RPCPQCFYPLM-NH2; disulfide 3-6 (inferred); N-terminus and C-terminus assumed)
- Fold Induction ATP ([1]; Table 2, 100 nM, 4 days): 1.3** fold
- Fold Induction cAMP ([2]; 100 nM): 2.2* fold

Compound: CSCC[C@H](NC(=O)[C@H](CC(C)C)NC(=O)[C@@H]1CCCN1C(=O)[C@H](Cc1ccccc1)NC(=O)[C@H](Cc1ccccc1)NC(=O)[C@@H]1CCC(=O)N1)C(N)=O [Septide] ([pGlu]FFPLM-NH2; C-terminus assumed)
- Fold Induction ATP ([1]; Table 4, 100 nM): 1.7* fold
- Fold Induction NFAT ([4]; 100 nM): 2.0* fold

Compound: CC(C)C[C@H](NC(=O)[C@@H](Cc1c[nH]c2ccccc12)NC(=O)[C@H](Cc1ccc(O)cc1)NC(=O)[C@H](CO)NC(=O)[C@@H](Cc1c[nH]c2ccccc12)NC(=O)[C@@H](Cc1ccccc1)NC(=O)[C@H]1CCC(=O)N1)C(=O)N[C@@H](CCCNC(=N)N)C(=O)N1CCC[C@H]1C(=O)NCC(N)=O [[D-pGlu1,D-Phe2, D-Trp3,6]-LH-RH] ([d(pGlu)][dF][dW]SY[dW]LRPG-NH2; C-terminus assumed)
- Fold Induction ATP ([1]; Table 2, 100 nM, 4 days): 1.3*** fold
- Fold Induction cAMP ([2]; 1 nM): 2.0* (1 nM) fold
- Fold Induction (Doublecortin-positive cells) [3]: 1.3 fold

Compound: NC(N)=NCCC[C@@H](N)C(=O)N[C@@H](CCCN=C(N)N)C(=O)N1CCC[C@H]1C(=O)N1C[C@H](O)C[C@H]1C(=O)NCC(=O)N[C@H](C(=O)N[C@@H](CO)C(=O)N[C@@H](C(=O)N1[C@H](C(=O)N[C@@H](CCCN=C(N)N)C(=O)O)C[C@@H]2CCCC[C@@H]21)C1Cc2ccccc2C1)C1Cc2ccccc2C1 [[D-Arg0, Hyp3, Ig15, D-Ig17, Oic8]-Bradykinin]
- Fold Induction ATP ([1]; Table 2, 100 nM, 4 days): 1.5* fold
- Fold Induction cAMP ([2]; 10 nM): 1.3* (10 nM) fold
- Fold Induction (Doublecortin-positive cells) [3]: 1.4 fold
